# Test results taken from PubChem BioAssay AID504467 (National Center for Advancing Translational Sciences (NCATS), 2011).
# The whole screen tested about 330,000 compounds, of which about 7,700 (2.3%) were called active. Inconclusive means that the source gave no clear call. Such entries were picked first, then a sample of the others. The call rests on the fitted dose curve; in most records, active means well fitted inhibition curve with a large enough effect; inconclusive means small, poorly fitted or top-dose-only effect, or effect the other way; inactive means flat fitted curve, though single readings scatter. Where the call is inconclusive, the potency comes from a doubtful curve fit.
# Assay: qHTS screen for small molecules that inhibit ELG1-dependent DNA repair in human embryonic kidney (HEK293T) cells expressing luciferase-tagged ELG1; further: nearly all actives have a fitted effect of over 55% in size
# Conditions: HEK293T ELG1-luciferase reporter, luminescence, 16 h, DNA damage induced by 5-fluorouridine; activity change, negative = inhibition: at 46.1 µM (top of the series)
# Method in brief: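 Overnight (16 hr) co-exposure of 2,000 cells/well to 5-fluorouridine and compound at 37 °C preceded detection. Luciferase was quantified via ONE-Glo luminescence; loss of signal denotes inhibition.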
# On the % scale 0 is the no-effect control and ±100 the full control effect; potency means the concentration at half of the fitted maximal effect.
Structure (SMILES),Potency,"activity change, negative = inhibition"
CN(C)S(=O)(=O)n1cnc(C(CCO)c2ncn(S(=O)(=O)N(C)C)c2CCCO)c1 (stereo not given),"inconclusive: 23.1 µM [activator, single point]",–
COc1nc(NCCc2ccc(OC)c(OC)c2)nc(Nc2ccccc2)n1,"inconclusive: 29.1 µM [inhibitor, single point]",–
O=C(Cn1cnc2cc([N+](=O)[O-])ccc2c1=O)Nc1ccc2c(c1)CCC2,–,inactive: -3.77%
O=C(CCc1ccccc1)Nc1cccc(S(=O)(=O)N2CCOCC2)c1,–,inactive: -19.4%
O=C1CCN(Cc2ccc([N+](=O)[O-])cc2)CCN1[C@H](CO)Cc1ccccc1,"inconclusive: 7.3 µM [inhibitor, single point]",–
COc1cc2c(cc1OC)C(/C=C/c1ccco1)=NCC2,"inconclusive: 16.4 µM [inhibitor, partial curve]",–
Cc1ccc(-c2csc3nc[nH]c(=S)c23)cc1,"inconclusive: 23.1 µM [inhibitor, partial curve, poor fit]",–
COc1ccc(OC)c(S(=O)(=O)CC(O)CS(=O)(=O)c2ccccc2)c1 (stereo not given),–,inactive: 11.9%
CCOC(=O)NC(NCc1cccc(C(F)(F)F)c1)(C(F)(F)F)C(F)(F)F,"inconclusive: 29.1 µM [activator, partial curve, poor fit]",–
Cc1cccc(C(=O)NCC2CCCO2)c1 (stereo not given),"inconclusive: 20.6 µM [activator, partial curve, poor fit]",–
CN(CC(=O)Nc1ccc(C(N)=O)cc1)CC(=O)Nc1ccccc1Cl,–,inactive: 0.751%
Cc1cccc(C(=O)OCC(=O)c2ccc3c(c2)OCCO3)c1O,"inconclusive: 11.6 µM [activator, single point]",–
O=C(Oc1cccc([N+](=O)[O-])c1)c1ccc2c(=O)n3c(nc2c1)CCC3,–,inactive: -0.19%
COc1cc(/C=C/C(=O)Nc2ccccc2C(F)(F)F)cc(OC)c1OC,–,inactive: -15.7%
COc1ccc(-c2nnc3n2CCCCC3)cc1OC,–,inactive: 0.708%
COc1ccc(-c2onc(C)c2-c2cscn2)c(O)c1,–,inactive: -17.2%
CCC(=O)Nc1ccc(Nc2nc(C)c([N+](=O)[O-])c(Nc3ccc(NC(=O)CC)cc3)n2)cc1,active: 11.6 µM,–
O=C(COc1ccc(Cl)cc1[N+](=O)[O-])NC1CCCCC1,"inconclusive: 4.61 µM [activator, full curve]",–
O=C(COC(=O)Cn1cnc2ccccc21)Nc1ccc(F)c(F)c1,–,inactive: 9.98%
Cc1ccc(COc2cccc3c2CCN(Cc2ccc(F)cc2)C3=O)cc1,"inconclusive: 3.26 µM [inhibitor, partial curve, poor fit]",–
CCC(=O)NC(c1cccs1)c1ccc2cccnc2c1O (stereo not given),active: 3.66 µM,–
O=C(Cc1ccccc1)Nc1ccc(N2CCCC2)cc1,"inconclusive: 18.4 µM [activator, partial curve]",–
c1ccc2c(-c3cn4ccccc4n3)c[nH]c2c1,"inconclusive: 9.2 µM [activator, partial curve, poor fit]",–

# Quoted from the listing:
# `O=C(COC(=O)Cn1cnc2ccccc21)Nc1ccc(F)c(F)c1` – activity change, negative = inhibition: inactive: 9.98%
# `COc1nc(NCCc2ccc(OC)c(OC)c2)nc(Nc2ccccc2)n1` – Potency: inconclusive: 29.1 µM [inhibitor, single point]
# `CCOC(=O)NC(NCc1cccc(C(F)(F)F)c1)(C(F)(F)F)C(F)(F)F` – Potency: inconclusive: 29.1 µM [activator, partial curve, poor fit]

# (next part)

Structure (SMILES),Potency,"activity change, negative = inhibition"
Cc1ccc(S(=O)(=O)N2CCN(C(=O)COc3ccc(C)nc3[N+](=O)[O-])CC2)c(C)c1,"inconclusive: 20.6 µM [inhibitor, single point]",–
CCCn1c(CN2CCN(C(=O)OCC)CC2)nc2cc(NC(=O)C(C)C)ccc21,"inconclusive: 4.61 µM [inhibitor, full curve]",–
Cc1cccc(C(=O)OCC(=O)N2CCc3ccccc3C2)c1O,"inconclusive: 20.6 µM [activator, single point]",–
CC1=C(C(=O)OCCC(C)C)C(c2ccc3c(c2)OCO3)NC(=O)N1 (stereo not given),–,inactive: -5.32%
O=C(COC(=O)c1ccccc1C(=O)c1ccccc1)Nc1ccc(SC(F)F)cc1,"inconclusive: 25.9 µM [inhibitor, single point]",–
CCOc1ccccc1C(=O)Nc1nnc(Cc2ccc(OC)c(OC)c2)s1,–,inactive: -27.1%
O=C(Nc1cccc2nsnc12)c1ccc2c(c1)OCO2,"inconclusive: 18.4 µM [activator, partial curve]",–
Cc1ccc2sc(NC(=O)CSc3nc(C)cc(C)c3C#N)nc2c1,"inconclusive: 2 µM [activator, full curve, poor fit]",–
COc1cccc(CNC(=O)CCS(=O)(=O)c2ccc3c(c2)NC(=O)CO3)c1,"inconclusive: 10.3 µM [activator, partial curve, poor fit]",–
c1ccc(CNc2nc(N3CCN(Cc4ccccc4)CC3)nc3ccccc23)cc1,"inconclusive: 18.3 µM [inhibitor, partial curve]",–
COc1cccc2c1OCC/C2=N\NC(=O)COc1ccc(C)cc1,–,inactive: 13.8%
O=C(/C=C/c1ccc(Cl)cc1Cl)Nc1cccc(S(=O)(=O)NC2=NCCC2)c1,"inconclusive: 1.16 µM [activator, partial curve]",–
Cc1occc1C(=O)Nc1sc2c(c1C(N)=O)CCC(C(C)(C)C)C2 (stereo not given),"inconclusive: 7.31 µM [activator, partial curve]",–
O=c1oc2ccccc2c2oc3cc(O)c(O)cc3c12,"inconclusive: 29.1 µM [activator, single point]",–
CCCCn1c(=O)n(C)c(=O)c2c3c(sc21)COC(C)(C)C3,"inconclusive: 23.1 µM [inhibitor, single point]",–
O=C(CCCCCN1C(=O)c2cccc3cccc(c23)C1=O)NCCCO,–,inactive: 0.944%
CCCCCCc1cc2cc(-c3nnc(-c4cc(OC)c(OC)c(OC)c4)o3)c(=O)oc2cc1O,"inconclusive: 5.17 µM [inhibitor, single point]",–
Cc1ccc(NC(=O)c2ccc3c(c2)OCCO3)cc1C,"inconclusive: 0.461 µM [activator, full curve]",–
CCCN(C(=O)C1=COCCO1)c1c(N)n(Cc2ccccc2)c(=O)[nH]c1=O,–,inactive: -9.84%
CC(C)(C)OC(=O)NCCCC[C@H](NC(=O)c1nc[nH]c1C(=O)N1CCN(c2ccccc2)CC1)C(=O)OC(C)(C)C,active: 20.6 µM,–
O=C(Nc1ccc(Cl)c(C(F)(F)F)c1)NC1CC2CCCC(C1)N2Cc1ccccc1 (stereo not given),–,inactive: -28.8%
CCc1ccc(NC(=O)c2cccnc2)cc1,"inconclusive: 18.4 µM [activator, partial curve]",–
